# Assay results taken from patent US20200095636.
# No signal at the amounts used counts as a negative. For some assays here: At least one result comes from cells or an extract, where the contact may be indirect. For some assays here: For at least one entry, the source does not settle the construct or the ends of the probe.
# Tests used:
# [1] = target: EGFR (epidermal growth factor receptor) (Homo sapiens) (UniProt P00533); assay: activity in cells; settings: 2'-F C/U, 2'-OH purines, protein on the cell surface
# [2] = target: EGFR (epidermal growth factor receptor) (Homo sapiens) (UniProt P00533); assay: flow cytometry; settings: 2'-F C/U, 2'-OH purines, 3' idT; non-targeting control aptamer, background staining of A431 cells; protein on the cell surface; label: 5' AF488
sequence,measurement,setting,value
GGACGGAUUUAAUCGCCGUAGAAAGCAUGUCAAAGCCGGAACCGUCC [E07],functional effect of the aptamer,"[1]; 3' idT, inhibits EGF-induced EGFR phosphorylation in A431, restored by 5 uM mA9",active
GGGAUUUAGGACGGAUUUAAUCGCCGUAGAAAGCAUGUCAAAGCCGGAACCGUCC [E07-SA 2:1 (bE07:streptavidin)],functional effect of the aptamer,"[1]; inhibits EGF-induced EGFR phosphorylation in A431, restored by 5 uM mA9, 5 min 37 C, variant of E07",active
GGCGUAGUGAUUAUGAAUCGUGUGCUAAUACACGCC [C36],binding result,[2],no binding
same,functional effect of the aptamer,"[1]; 3' idT, does not inhibit EGF-stimulated EGFR phosphorylation, dose not given here",not active
GGAAAAUAGGCGUAGUGAUUAUGAAUCGUGUGCUAAUACACGCC [C36-SA 2:1 (bC36:streptavidin)],functional effect of the aptamer,"[1]; does not inhibit EGF-stimulated EGFR phosphorylation, variant of C36, dose not given here",not active
